These results are taken from paper PMC5647383.

Protein sequences, listed by entry. Tags and fused reporters are not part of them.
UniProt Q7RTP6: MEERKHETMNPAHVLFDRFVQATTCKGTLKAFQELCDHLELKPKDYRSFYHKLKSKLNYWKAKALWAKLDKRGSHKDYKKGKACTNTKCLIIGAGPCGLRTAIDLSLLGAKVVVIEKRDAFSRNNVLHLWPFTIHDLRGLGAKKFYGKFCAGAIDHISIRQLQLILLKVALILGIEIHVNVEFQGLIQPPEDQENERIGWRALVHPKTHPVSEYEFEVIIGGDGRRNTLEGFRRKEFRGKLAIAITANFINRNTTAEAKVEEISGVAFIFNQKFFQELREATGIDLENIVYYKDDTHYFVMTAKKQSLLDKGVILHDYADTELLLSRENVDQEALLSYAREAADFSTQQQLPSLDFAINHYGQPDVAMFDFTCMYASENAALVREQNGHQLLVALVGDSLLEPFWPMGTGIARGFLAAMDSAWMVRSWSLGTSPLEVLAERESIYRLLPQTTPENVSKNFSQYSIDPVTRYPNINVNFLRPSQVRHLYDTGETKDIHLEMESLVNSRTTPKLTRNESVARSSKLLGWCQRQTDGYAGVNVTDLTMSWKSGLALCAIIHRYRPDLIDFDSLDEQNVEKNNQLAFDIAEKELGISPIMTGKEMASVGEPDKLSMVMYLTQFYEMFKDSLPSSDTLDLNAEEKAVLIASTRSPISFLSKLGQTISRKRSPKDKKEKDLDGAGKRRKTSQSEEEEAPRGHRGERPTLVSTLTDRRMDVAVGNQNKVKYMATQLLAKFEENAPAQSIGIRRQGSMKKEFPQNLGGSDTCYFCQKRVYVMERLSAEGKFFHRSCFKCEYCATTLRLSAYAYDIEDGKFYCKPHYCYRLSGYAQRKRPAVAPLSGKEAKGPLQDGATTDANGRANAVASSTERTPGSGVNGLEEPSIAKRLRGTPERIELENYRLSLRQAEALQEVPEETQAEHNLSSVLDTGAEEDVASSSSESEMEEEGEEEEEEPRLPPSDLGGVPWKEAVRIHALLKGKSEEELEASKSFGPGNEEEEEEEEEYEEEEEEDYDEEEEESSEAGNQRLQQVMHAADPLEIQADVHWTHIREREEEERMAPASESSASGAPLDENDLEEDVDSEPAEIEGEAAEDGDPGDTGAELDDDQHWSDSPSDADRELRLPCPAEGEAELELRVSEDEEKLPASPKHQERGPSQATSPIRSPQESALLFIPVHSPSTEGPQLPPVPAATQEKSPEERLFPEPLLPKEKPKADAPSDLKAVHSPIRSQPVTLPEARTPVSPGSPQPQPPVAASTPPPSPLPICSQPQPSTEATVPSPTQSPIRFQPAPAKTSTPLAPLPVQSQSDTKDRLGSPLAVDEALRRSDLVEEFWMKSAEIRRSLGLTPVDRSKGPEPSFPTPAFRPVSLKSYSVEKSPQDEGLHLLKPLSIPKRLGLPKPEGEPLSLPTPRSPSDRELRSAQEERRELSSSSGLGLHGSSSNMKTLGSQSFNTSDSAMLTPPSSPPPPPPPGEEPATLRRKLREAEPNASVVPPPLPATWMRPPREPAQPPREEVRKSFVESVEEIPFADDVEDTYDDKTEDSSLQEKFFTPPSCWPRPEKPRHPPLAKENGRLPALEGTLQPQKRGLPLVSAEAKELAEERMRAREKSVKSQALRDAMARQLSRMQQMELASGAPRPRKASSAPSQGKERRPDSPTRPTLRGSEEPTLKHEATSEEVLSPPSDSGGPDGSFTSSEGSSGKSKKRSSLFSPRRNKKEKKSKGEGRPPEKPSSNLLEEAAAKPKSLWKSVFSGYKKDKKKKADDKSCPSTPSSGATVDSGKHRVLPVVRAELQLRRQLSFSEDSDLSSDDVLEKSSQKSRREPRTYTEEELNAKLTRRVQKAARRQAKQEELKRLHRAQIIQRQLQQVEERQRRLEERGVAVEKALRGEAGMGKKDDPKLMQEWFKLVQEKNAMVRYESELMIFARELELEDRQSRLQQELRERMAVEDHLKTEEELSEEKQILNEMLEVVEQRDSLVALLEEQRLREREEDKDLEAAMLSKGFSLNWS
UniProt P61006: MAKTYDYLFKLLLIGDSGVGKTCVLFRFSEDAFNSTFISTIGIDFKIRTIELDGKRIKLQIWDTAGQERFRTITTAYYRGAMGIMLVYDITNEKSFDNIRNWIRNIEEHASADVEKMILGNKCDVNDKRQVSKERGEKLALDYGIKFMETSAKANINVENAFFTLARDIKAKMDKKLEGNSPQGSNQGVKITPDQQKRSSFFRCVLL

This test addresses BioGFP-MICAL3 (UniProt Q7RTP6). The test can be described thus: cross-linking; complexes from co-transfected HEK293T cells isolated in one step on streptavidin Dynabeads by the BioGFP bait, cross-linked on beads with 1 mM DSSO (20 mM HEPES pH 7.8, 150 mM NaCl, 45 min, room temperature), trypsin digest, LC/MS/MS, XlinkX, 1% FDR.

Results are given in words; binding and its absence hold for the method and conditions named. In cells and extracts the contact can be indirect. Some results given as binding are weak or reduced against the parent protein; the word gives no strength.

On to BFP-Rab8A (from UniProt P61006 1-207), for which the binding entry is listed as “binds”.

B1: mCherry-ELKS-FL (protein, UniProt Q8IUD2 1-1116)
chain: MYGSARSVGKVEPSSQSPGRSPRLPRSPRLGHRRTNSTGGSSGSSVGGGSGKTLSMENIQSLNAAYATSGPMYLSDHENVGSETPKSTMTLGRSGGRLPYGVRMTAMGSSPNIASSGVASDTIAFGEHHLPPVSMASTVPHSLRQARDNTIMDLQTQLKEVLRENDLLRKDVEVKESKLSSSMNSIKTFWSPELKKERALRKDEASKITIWKEQYRVVQEENQHMQMTIQALQDELRIQRDLNQLFQQDSSSRTGEPCVAELTEENFQRLHAEHERQAKELFLLRKTLEEMELRIETQKQTLNARDESIKKLLEMLQSKGLSAKATEEDHERTRRLAEAEMHVHHLESLLEQKEKENSMLREEMHRRFENAPDSAKTKALQTVIEMKDSKISSMERGLRDLEEEIQMLKSNGALSTEEREEEMKQMEVYRSHSKFMKNKVEQLKEELSSKEAQWEELKKKAAGLQAEIGQVKQELSRKDTELLALQTKLETLTNQFSDSKQHIEVLKESLTAKEQRAAILQTEVDALRLRLEEKETMLNKKTKQIQDMAEEKGTQAGEIHDLKDMLDVKERKVNVLQKKIENLQEQLRDKEKQMSSLKERVKSLQADTTNTDTALTTLEEALAEKERTIERLKEQRDRDEREKQEEIDNYKKDLKDLKEKVSLLQGDLSEKEASLLDLKEHASSLASSGLKKDSRLKTLEIALEQKKEECLKMESQLKKAHEAALEARASPEMSDRIQHLEREITRYKDESSKAQAEVDRLLEILKEVENEKNDKDKKIAELERQVKDQNKKVANLKHKEQVEKKKSAQMLEEARRREDNLNDSSQQLQDSLRKKDDRIEELEEALRESVQITAEREMVLAQEESARTNAEKQVEELLMAMEKVKQELESMKAKLSSTQQSLAEKETHLTNLRAERRKHLEEVLEMKQEALLAAISEKDANIALLELSSSKKKTQEEVAALKREKDRLVQQLKQQTQNRMKLMADNYEDDHFKSSHSNQTNHKPSPDQIIQPLLELDQNRSKLKLYIGHLTTLCHDRDPLILRGLTPPASYNLDDDQAAWENELQKMTRGQLQDELEKGERDNAELQEFANAILQQIADHCPDILEQVVNALEESS
Consider B1, for which the binding result is reported as “binds”.
